This is an account of results in PMC4344508.

In data set [1] the target is T1, Luzp4-6His (Homo sapiens) (UniProt Q9P127).
T1 sequence (looked up): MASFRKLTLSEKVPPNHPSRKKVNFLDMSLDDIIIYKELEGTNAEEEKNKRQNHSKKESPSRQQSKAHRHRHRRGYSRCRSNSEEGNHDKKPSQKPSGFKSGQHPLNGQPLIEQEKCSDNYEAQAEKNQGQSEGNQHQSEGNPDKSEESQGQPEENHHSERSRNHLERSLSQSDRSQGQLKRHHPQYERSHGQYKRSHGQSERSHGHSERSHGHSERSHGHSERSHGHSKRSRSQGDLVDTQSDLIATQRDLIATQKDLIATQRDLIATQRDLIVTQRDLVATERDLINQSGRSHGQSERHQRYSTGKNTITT
In words: UV crosslinking. As to conditions: higher KCl (300-500 mM); UV crosslinking with 100, 300 or 500 mM KCl (Fig. 2A) or 100 mM NaCl (Fig. 2B); pH and temperature not given (cited earlier paper); recombinant protein; residues 1-313; protein details: C-terminal 6xHis (pET24b); label: 32P; single-stranded DNA.

In data set [2] the test system is GB1-Alyref-6His. In words: UV crosslinking. As to conditions: very weak binding; UV crosslinking with 100, 300 or 500 mM KCl (Fig. 2A) or 100 mM NaCl (Fig. 2B); pH and temperature not given (cited earlier paper); recombinant protein; protein details: N-terminal GB1, C-terminal 6xHis; label: 32P; single-stranded DNA.

Construct, isoform or probe ends are uncertain for at least one entry. The comparison behind a weaker result is the experiment's own reference, which may not be listed here. For some assays here: Where a protein sequence is shown, tags need not be part of it.

As to “CTCTAGATCAACCACTTTGT [ssDNA oligonucleotide]”, the binding result in data set [1] and in data set [2] was “binds more weakly” throughout.
